Laboratory results reported in PMC5035054.
Results are given in words; binding and its absence hold for the method and conditions named. Binding seen in cells or lysates may run through a third protein.

Chains of the proteins cited; added tags and fusions are not shown.
UniProt P08579: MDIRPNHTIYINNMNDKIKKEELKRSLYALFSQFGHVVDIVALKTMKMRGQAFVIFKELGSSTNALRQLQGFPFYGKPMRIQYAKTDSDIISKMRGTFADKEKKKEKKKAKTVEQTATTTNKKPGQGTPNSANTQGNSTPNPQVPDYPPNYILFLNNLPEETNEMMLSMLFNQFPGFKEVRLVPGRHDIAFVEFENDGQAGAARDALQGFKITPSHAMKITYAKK

Target: FLAG-V5-tagged U2-B” (FV5-U2-B”) (UniProt P08579)
Assay: co-IP; anti-FLAG immunoprecipitation of FV5-U2-B” from the spliceosome gel-filtration fractions, western blot

B1: Polycomb group protein PHC1 (protein, UniProt P78364 1-1004)
chain: METESEQNSNSTNGSSSSGGSSRPQIAQMSLYERQAVQALQALQRQPNAAQYFHQFMLQQQLSNAQLHSLAAVQQATIAASRQASSPNTSTTQQQTTTTQASINLATTSAAQLISRSQSVSSPSATTLTQSVLLGNTTSPPLNQSQAQMYLRPQLGNLLQVNRTLGRNVPLASQLILMPNGAVAAVQQEVPSAQSPGVHADADQVQNLAVRNQQASAQGPQMQGSTQKAIPPGASPVSSLSQASSQALAVAQASSGATNQSLNLSQAGGGSGNSIPGSMGPGGGGQAHGGLGQLPSSGMGGGSCPRKGTGVVQPLPAAQTVTVSQGSQTEAESAAAKKAEADGSGQQNVGMNLTRTATPAPSQTLISSATYTQIQPHSLIQQQQQIHLQQKQVVIQQQIAIHHQQQFQHRQSQLLHTATHLQLAQQQQQQQQQQQQQQQPQATTLTAPQPPQVPPTQQVPPSQSQQQAQTLVVQPMLQSSPLSLPPDAAPKPPIPIQSKPPVAPIKPPQLGAAKMSAAQQPPPHIPVQVVGTRQPGTAQAQALGLAQLAAAVPTSRGMPGTVQSGQAHLASSPPSSQAPGALQECPPTLAPGMTLAPVQGTAHVVKGGATTSSPVVAQVPAAFYMQSVHLPGKPQTLAVKRKADSEEERDDVSTLGSMLPAKASPVAESPKVMDEKSSLGEKAESVANVNANTPSSELVALTPAPSVPPPTLAMVSRQMGDSKPPQAIVKPQILTHIIEGFVIQEGAEPFPVGCSQLLKESEKPLQTGLPTGLTENQSGGPLGVDSPSAELDKKANLLKCEYCGKYAPAEQFRGSKRFCSMTCAKRYNVSCSHQFRLKRKKMKEFQEANYARVRRRGPRRSSSDIARAKIQGKCHRGQEDSSRGSDNSSYDEALSPTSPGPLSVRAGHGERDLGNPNTAPPTPELHGINPVFLSSNPSRWSVEEVYEFIASLQGCQEIAEEFRSQEIDGQALLLLKEEHLMSAMNIKLGPALKICAKINVLKET
binding: no binding
